PubChem BioAssay AID602196 | INSERM | 2012

Screen: 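Knock-downs that protect lung cancer cells from cisplatin or sensitise them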
Cell system: human A549 lung cancer cells
Reagents: siRNA pair against human genes
Timing: 48 h transfection before cisplatin; time from cisplatin to read-out not stated
Conditions: cisplatin at a dose killing half of control-siRNA cells; exact dose and duration not given
Measurement: 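Cisplatin cell death as a shift from the 50% death seen with control siRNA; siRNAs toxic or growth-blocking alone scored 0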
Reading the numbers: two-siRNA summed score (-2 to +2): higher = both siRNAs protect from cisplatin killing; -2 means both sensitise; mean protection from cisplatin (shift in death) and protection from cisplatin (shift in death), siRNA C and protection from cisplatin (shift in death), siRNA D: higher = protection from cisplatin killing
Active means: 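Each siRNA scores 0 if harmful alone by LDH or WST-1, otherwise +1 if it reduces and -1 if it increases cisplatin killing; a gene is active when both siRNAs agree (sum +2 or -2)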
Calls: active = both siRNAs shift cisplatin killing the same way; inactive = no consistent shift, or siRNA harmful alone
In all, the deposit lists about 23,000 reagents; this is a random part of them. 455 of them (2%) count as active. 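Active includes both protection and sensitisation; some change values fall well beyond the stated -50 to +50 range.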 Entries without a mark were called inactive. Reagents against one gene are numbered here. The record does not give: the amount of reagent.

| target | reagent no. | two-siRNA summed score (-2 to +2) | mean protection from cisplatin (shift in death) (%) | protection from cisplatin (shift in death), siRNA C (%) | protection from cisplatin (shift in death), siRNA D (%) |
| --- | --- | --- | --- | --- | --- |
| LGI1 (GeneID 9211) | 1 | 0 | 14.9 | 12 | 17.8 |
| RAG1 (GeneID 5896) | 1 | 0 | 2.8 | 5.9 | -0.4 |
| PRKRA (GeneID 8575) | 1 | 0 | 3.8 | 6.3 | 1.3 |
| FBXL12 (GeneID 54850) | 1 | 1 | 5.6 | -14.3 | 25.4 |
| FLJ37201 (GeneID 283011) | 1 | 0 | 9.8 | 12.5 | 7.2 |
| LYPLAL1 (GeneID 127018) | 1 | 0 | -3.4 | -1.7 | -5.2 |
| MMP2 (GeneID 4313) | 1 | -1 | -18.5 | -47.5 | 10.4 |
| AVO3 | 1 | 0 | 14.5 | 15.8 | 13.1 |
| NFIX (GeneID 4784) | 1 | 0 | 4.2 | 14.5 | -6.2 |
| POLR2C (GeneID 5432) | 1 | 0 | -9.7 | -17 | -2.4 |
| MTSS1 (GeneID 9788) | 1 | 0 | 2.6 | -7.6 | 12.7 |
| PAX1 (GeneID 5075) | 1 | 0 | -13 | -0.1 | -25.8 |
| NOXO1 (GeneID 124056) | 1 | 1 | 13.1 | 3.6 | 22.6 |
| OSBPL5 (GeneID 114879) | 1 | 1 | 19.8 | 7 | 32.7 |
| LOC440967 | 1 | 2 (active) | 16.5 | 14 | 18.9 |
| COG5 (GeneID 10466) | 1 | 0 | 4.1 | 8.1 | 0.1 |
| GPR162 (GeneID 27239) | 1 | 0 | 8 | 4.7 | 11.3 |
| TAS2R42 (GeneID 353164) | 1 | 1 | 3.6 | 5.1 | 2 |
| DLL4 (GeneID 54567) | 1 | -1 | -3.5 | 12.2 | -19.2 |
| CCDC9 (GeneID 26093) | 1 | 0 | 6.7 | -5.1 | 18.4 |
| CNOT2 (GeneID 4848) | 1 | -1 | -5 | -16.7 | 6.8 |
| PDK1 (GeneID 5163) | 1 | 0 | 4.4 | 4.9 | 3.9 |
| LOC441436 | 1 | 0 | 10.7 | 17.8 | 3.6 |
| LEP (GeneID 3952) | 1 | 0 | 2.5 | 3.2 | 1.9 |
| B3GALT5 (GeneID 10317) | 1 | 0 | 11.9 | 17.2 | 6.6 |
| H2BC21 (GeneID 8349) | 1 | 0 | 12.5 | 11.1 | 14 |
| LERFS (GeneID 403323) | 1 | 1 | 10.7 | 4.7 | 16.7 |
| SLC22A13 (GeneID 9390) | 1 | 1 | 7.3 | 12.5 | 2.2 |
| COA8 (GeneID 84334) | 1 | 1 | -0.1 | 20.3 | -20.5 |
| SERHL2 (GeneID 253190) | 1 | 0 | 5 | 0.1 | 9.9 |
| LOC402592 | 1 | 0 | -0.9 | -0.5 | -1.3 |
| IFNLR1 (GeneID 163702) | 1 | 0 | 6.9 | 8.8 | 5 |
| FBXO7 (GeneID 25793) | 1 | 1 | -0.8 | 15.3 | -17 |
| EMSY (GeneID 56946) | 1 | 0 | -5.2 | -17.3 | 6.9 |
| EEF1B2 (GeneID 1933) | 1 | -1 | -5.7 | 1.1 | -12.4 |
| LOC199800 | 1 | 0 | 7.9 | 32.9 | -17.1 |
| TMEM230 (GeneID 29058) | 1 | 0 | 6 | 5.5 | 6.5 |
| ELOF1 (GeneID 84337) | 1 | 0 | -7.7 | -8.8 | -6.6 |
| LOC400506 | 1 | 0 | -2.1 | 2.8 | -6.9 |
| ZNF37A (GeneID 7587) | 1 | 0 | 3.3 | 8 | -1.5 |
| CYP11B1 (GeneID 1584) | 1 | 0 | 2.6 | 14.4 | -9.1 |
| IRGM (GeneID 345611) | 1 | 0 | 10.1 | 15.3 | 4.8 |
| COG3 (GeneID 83548) | 1 | 0 | 3.9 | 11 | -3.3 |
| PTPRH (GeneID 5794) | 1 | 0 | -6.5 | 11 | -23.9 |
| C16orf46 (GeneID 123775) | 1 | 0 | 0 | 3.5 | -3.5 |
| SLC25A39 (GeneID 51629) | 1 | -1 | -11.3 | -30.2 | 7.5 |
| HTR2B (GeneID 3357) | 1 | 1 | 7.1 | -1 | 15.3 |
| NKX2-5 (GeneID 1482) | 1 | 1 | 5.9 | -3.2 | 15.1 |

Next part, starting with the last 7 of the part before.
| target | reagent no. | two-siRNA summed score (-2 to +2) | mean protection from cisplatin (shift in death) (%) | protection from cisplatin (shift in death), siRNA C (%) | protection from cisplatin (shift in death), siRNA D (%) |
| --- | --- | --- | --- | --- | --- |
| IRGM (GeneID 345611) | 1 | 0 | 10.1 | 15.3 | 4.8 |
| COG3 (GeneID 83548) | 1 | 0 | 3.9 | 11 | -3.3 |
| PTPRH (GeneID 5794) | 1 | 0 | -6.5 | 11 | -23.9 |
| C16orf46 (GeneID 123775) | 1 | 0 | 0 | 3.5 | -3.5 |
| SLC25A39 (GeneID 51629) | 1 | -1 | -11.3 | -30.2 | 7.5 |
| HTR2B (GeneID 3357) | 1 | 1 | 7.1 | -1 | 15.3 |
| NKX2-5 (GeneID 1482) | 1 | 1 | 5.9 | -3.2 | 15.1 |
| FKBP4P2 (GeneID 389727) | 1 | -2 (active) | -12.4 | -10.5 | -14.3 |
| CNKSR1 (GeneID 10256) | 1 | 1 | 8.4 | 9.3 | 7.4 |
| CNKSR1 (GeneID 10256) | 2 | 1 | 9 | 29.8 | -11.8 |
| TAS2R39 (GeneID 259285) | 1 | 1 | 10.7 | 2.3 | 19.2 |
| GFOD2 (GeneID 81577) | 1 | 0 | -0.4 | 1.8 | -2.6 |
| DEFB129 (GeneID 140881) | 1 | 0 | 6.3 | -2.2 | 14.7 |
| CNEP1R1 (GeneID 255919) | 1 | 1 | 17.2 | 15.3 | 19.1 |
| ADGRV1 (GeneID 84059) | 1 | 0 | 4 | -4.1 | 12 |
| CDC20 (GeneID 991) | 1 | 1 | -12.9 | 9.1 | -34.9 |
| LINC00649 (GeneID 100506334) | 1 | 0 | -0.9 | -6.1 | 4.3 |
| RIT1 (GeneID 6016) | 1 | 1 | 6.9 | -6.7 | 20.6 |
| KCNK15 (GeneID 60598) | 1 | 0 | -10.7 | -19.2 | -2.3 |
| LGALS12 (GeneID 85329) | 1 | 0 | 7.3 | 9.3 | 5.4 |
| OR4D11 (GeneID 219986) | 1 | 0 | 9.5 | 6.1 | 12.9 |
| ADK (GeneID 132) | 1 | 0 | 4.7 | 14.5 | -5.2 |
| LOC392531 | 1 | 0 | -0.8 | 3.8 | -5.4 |
| NDUFA10 (GeneID 4705) | 1 | 0 | 7.1 | 3.3 | 11 |
| SNAP23 (GeneID 8773) | 1 | 0 | 10 | 12.4 | 7.6 |
| LOC440935 | 1 | 0 | 7.5 | -2.8 | 17.8 |
| DSC2 (GeneID 1824) | 1 | 2 (active) | 17 | 18.4 | 15.6 |
| KEL (GeneID 3792) | 1 | 0 | -2.5 | -1.2 | -3.8 |
| POLR2B (GeneID 5431) | 1 | 0 | -6.8 | -0.4 | -13.1 |
| LOC286157 | 1 | 1 | 12.9 | 6.1 | 19.7 |
| GPALPP1 (GeneID 55425) | 1 | -1 | -12.8 | -13.8 | -11.9 |
| POLD2 (GeneID 5425) | 1 | 0 | -1.1 | -1 | -1.1 |
